# The other results are listed elsewhere or left out.
# By UniProt entry, the sequences of proteins in these tests, tags left out. Where a name states a change or a piece, a line headed by the entry shows the natural chain unless it says otherwise.
# UniProt Q8NBL1: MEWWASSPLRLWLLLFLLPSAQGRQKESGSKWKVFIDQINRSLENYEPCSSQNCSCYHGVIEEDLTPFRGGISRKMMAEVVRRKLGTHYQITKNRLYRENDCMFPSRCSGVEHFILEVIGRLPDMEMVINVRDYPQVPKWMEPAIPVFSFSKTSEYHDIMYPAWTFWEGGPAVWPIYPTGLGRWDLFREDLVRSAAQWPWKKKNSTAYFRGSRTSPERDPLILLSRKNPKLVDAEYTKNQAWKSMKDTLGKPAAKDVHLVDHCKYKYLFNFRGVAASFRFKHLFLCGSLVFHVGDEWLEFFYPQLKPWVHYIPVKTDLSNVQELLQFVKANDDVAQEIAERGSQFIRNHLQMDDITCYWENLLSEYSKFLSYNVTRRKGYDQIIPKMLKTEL
# UniProt Q86WA8: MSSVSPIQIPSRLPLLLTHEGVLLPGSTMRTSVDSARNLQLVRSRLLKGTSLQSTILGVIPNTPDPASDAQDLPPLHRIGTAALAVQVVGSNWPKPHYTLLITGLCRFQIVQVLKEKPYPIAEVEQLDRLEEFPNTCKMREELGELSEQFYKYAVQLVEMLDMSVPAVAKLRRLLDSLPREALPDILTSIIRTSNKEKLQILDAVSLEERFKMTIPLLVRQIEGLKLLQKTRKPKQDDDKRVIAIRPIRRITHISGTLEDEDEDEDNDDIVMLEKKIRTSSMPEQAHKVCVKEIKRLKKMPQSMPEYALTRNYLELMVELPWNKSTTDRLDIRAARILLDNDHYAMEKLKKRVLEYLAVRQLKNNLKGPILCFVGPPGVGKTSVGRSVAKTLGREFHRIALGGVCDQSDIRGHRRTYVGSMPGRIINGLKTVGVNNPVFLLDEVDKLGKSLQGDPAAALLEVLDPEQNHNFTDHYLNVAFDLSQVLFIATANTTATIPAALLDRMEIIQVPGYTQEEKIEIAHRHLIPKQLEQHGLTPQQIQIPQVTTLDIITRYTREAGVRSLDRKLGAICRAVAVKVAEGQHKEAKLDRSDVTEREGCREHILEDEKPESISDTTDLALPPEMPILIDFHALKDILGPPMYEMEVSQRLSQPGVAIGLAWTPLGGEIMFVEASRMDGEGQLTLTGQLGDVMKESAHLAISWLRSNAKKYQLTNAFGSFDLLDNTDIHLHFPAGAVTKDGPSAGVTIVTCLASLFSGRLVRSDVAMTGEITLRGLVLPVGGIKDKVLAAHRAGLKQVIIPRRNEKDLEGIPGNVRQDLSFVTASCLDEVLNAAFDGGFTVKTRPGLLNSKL
# UniProt Q9BX40: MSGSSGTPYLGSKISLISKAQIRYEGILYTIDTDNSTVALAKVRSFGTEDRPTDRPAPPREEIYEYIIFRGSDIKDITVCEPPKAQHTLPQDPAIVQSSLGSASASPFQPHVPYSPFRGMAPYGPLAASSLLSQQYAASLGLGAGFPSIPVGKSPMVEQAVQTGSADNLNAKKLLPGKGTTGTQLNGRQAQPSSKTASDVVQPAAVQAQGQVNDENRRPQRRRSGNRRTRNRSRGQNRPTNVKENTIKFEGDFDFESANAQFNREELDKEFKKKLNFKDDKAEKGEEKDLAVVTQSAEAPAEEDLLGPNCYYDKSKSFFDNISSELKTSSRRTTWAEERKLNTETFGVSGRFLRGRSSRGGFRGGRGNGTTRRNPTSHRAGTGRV
# UniProt Q9Y5V3: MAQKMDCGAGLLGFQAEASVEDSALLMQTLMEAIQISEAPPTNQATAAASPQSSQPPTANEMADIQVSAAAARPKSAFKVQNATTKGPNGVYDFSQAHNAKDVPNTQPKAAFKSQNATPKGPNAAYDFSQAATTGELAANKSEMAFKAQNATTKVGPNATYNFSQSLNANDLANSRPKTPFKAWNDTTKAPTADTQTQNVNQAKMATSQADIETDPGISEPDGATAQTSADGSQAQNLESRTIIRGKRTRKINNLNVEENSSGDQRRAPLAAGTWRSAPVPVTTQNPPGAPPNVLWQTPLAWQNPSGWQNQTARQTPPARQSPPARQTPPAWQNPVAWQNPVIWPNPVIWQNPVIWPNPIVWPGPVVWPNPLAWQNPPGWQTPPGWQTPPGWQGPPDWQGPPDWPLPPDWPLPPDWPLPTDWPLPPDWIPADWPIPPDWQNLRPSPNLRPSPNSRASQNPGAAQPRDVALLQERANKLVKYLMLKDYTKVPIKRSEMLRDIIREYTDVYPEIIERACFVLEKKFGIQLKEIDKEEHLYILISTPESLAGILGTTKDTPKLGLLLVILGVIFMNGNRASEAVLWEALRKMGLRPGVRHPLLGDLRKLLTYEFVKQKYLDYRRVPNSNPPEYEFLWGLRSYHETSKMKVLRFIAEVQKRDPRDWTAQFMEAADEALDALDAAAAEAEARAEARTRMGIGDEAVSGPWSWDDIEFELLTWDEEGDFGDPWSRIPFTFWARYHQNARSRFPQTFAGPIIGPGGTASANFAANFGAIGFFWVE
# UniProt O95835: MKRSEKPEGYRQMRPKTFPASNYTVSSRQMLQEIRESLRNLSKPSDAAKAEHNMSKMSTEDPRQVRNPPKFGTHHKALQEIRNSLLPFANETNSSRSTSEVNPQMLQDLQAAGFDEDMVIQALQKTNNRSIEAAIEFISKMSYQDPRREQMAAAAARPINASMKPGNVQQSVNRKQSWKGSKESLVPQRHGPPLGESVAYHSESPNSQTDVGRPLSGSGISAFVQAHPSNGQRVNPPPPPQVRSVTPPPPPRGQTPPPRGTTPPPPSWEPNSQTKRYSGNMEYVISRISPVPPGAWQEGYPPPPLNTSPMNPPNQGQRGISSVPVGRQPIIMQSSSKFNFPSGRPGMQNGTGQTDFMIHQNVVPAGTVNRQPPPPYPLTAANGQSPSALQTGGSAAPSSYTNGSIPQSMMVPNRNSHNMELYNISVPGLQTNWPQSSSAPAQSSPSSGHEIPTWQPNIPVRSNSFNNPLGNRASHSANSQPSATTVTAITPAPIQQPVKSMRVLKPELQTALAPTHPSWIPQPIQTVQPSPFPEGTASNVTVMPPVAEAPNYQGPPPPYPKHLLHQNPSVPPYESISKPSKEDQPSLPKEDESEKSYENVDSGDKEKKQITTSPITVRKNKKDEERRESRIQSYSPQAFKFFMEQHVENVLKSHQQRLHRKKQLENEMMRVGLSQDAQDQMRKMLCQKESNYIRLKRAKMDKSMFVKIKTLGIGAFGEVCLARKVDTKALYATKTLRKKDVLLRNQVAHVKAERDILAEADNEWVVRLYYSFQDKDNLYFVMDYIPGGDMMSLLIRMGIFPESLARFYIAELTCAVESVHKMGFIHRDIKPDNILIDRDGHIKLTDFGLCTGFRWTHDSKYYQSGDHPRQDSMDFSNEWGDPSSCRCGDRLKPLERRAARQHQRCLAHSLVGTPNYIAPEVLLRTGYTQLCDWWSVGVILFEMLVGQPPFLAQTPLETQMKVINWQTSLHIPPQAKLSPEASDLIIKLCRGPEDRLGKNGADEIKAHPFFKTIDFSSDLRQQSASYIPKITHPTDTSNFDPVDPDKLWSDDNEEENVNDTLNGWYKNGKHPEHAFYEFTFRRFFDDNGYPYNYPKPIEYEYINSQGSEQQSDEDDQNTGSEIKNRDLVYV
# UniProt A0MZ66, whole entry: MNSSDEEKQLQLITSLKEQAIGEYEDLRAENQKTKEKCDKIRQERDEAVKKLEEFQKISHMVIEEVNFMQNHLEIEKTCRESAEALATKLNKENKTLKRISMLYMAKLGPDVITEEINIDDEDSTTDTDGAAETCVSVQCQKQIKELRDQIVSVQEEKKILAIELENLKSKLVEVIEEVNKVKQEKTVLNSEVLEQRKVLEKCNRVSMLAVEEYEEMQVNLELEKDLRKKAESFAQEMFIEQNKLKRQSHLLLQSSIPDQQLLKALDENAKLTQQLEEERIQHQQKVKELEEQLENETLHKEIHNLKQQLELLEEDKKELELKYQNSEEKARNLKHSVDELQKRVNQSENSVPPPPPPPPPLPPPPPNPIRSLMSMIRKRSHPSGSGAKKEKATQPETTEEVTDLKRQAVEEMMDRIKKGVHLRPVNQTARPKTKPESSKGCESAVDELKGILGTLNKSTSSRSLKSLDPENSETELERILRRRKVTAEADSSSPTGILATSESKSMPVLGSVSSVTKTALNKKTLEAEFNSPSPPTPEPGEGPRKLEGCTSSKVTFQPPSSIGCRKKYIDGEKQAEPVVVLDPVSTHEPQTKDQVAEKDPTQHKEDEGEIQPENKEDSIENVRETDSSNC
# UniProt Q9BRT6: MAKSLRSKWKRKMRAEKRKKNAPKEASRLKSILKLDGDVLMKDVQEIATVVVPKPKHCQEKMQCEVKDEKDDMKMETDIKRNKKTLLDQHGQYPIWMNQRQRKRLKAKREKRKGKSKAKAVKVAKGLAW
# UniProt Q96CN5: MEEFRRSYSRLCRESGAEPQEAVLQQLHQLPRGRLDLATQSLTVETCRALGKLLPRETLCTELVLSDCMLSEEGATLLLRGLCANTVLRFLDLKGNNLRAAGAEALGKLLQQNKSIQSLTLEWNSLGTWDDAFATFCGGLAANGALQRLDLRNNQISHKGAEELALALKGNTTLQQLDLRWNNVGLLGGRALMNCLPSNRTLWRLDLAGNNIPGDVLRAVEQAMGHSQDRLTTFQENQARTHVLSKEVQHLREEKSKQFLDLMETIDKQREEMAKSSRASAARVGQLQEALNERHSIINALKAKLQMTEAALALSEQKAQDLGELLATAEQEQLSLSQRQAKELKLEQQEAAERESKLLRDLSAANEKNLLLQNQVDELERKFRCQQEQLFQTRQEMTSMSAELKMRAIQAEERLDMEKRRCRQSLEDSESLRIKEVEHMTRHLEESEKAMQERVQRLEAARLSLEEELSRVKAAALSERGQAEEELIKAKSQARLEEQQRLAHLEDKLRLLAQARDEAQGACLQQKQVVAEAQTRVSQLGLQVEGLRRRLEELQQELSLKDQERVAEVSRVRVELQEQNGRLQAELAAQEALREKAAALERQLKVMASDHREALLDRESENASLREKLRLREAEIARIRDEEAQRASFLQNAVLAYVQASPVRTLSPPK
# UniProt O75197: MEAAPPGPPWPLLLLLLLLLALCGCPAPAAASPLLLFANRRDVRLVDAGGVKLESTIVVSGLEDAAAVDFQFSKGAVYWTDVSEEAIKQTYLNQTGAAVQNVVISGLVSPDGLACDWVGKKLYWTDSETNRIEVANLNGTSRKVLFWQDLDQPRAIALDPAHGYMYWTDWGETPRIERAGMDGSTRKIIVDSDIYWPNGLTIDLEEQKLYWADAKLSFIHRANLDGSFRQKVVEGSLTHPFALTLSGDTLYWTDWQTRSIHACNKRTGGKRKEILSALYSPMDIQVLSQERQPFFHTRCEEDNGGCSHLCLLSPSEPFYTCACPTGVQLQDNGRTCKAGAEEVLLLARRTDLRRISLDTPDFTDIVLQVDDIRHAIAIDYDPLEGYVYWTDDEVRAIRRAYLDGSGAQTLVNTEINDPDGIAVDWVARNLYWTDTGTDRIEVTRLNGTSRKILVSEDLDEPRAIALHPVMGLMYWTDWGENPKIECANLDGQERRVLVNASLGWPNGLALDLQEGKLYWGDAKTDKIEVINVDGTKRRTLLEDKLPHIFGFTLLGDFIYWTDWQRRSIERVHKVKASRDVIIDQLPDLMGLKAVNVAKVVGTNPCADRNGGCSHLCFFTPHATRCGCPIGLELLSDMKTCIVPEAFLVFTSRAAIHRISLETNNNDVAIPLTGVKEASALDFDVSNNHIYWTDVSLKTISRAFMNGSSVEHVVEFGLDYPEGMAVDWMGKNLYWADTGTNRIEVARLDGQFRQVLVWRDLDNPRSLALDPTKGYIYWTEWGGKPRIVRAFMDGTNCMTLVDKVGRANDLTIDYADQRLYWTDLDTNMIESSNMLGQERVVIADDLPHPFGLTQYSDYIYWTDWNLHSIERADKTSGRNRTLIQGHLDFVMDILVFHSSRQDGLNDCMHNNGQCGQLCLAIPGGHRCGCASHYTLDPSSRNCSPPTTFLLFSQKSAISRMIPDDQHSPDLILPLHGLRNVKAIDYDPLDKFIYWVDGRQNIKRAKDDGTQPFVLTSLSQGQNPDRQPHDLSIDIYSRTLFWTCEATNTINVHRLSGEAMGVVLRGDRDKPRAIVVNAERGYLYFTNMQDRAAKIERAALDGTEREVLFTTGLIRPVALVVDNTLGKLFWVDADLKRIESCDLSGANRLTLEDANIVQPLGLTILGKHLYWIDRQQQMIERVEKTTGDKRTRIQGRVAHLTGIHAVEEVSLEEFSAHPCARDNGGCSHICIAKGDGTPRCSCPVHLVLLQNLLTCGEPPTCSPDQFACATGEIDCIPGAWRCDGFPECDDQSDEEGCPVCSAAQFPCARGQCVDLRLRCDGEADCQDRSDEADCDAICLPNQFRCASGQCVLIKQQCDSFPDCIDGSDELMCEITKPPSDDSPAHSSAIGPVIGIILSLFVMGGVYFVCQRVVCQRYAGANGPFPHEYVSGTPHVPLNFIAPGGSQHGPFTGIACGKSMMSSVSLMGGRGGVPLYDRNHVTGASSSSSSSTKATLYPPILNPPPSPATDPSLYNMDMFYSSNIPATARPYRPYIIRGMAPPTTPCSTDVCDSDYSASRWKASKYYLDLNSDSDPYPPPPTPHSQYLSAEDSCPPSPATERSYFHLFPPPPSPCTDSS
# Compound: COc1ccc(Cn2ccc3ccc(C(=O)NO)cc32)cc1
# Assay: dose-dependent thermal stabilisation call (2D-TPP, DLPTP, 10% FDR) (binary (1 = stabilised)); higher = stabilised by the compound
# Conditions: system: HL-60 intact cells; concentration range 0.04-10 µM
row,Target,dose-dependent thermal stabilisation call
1,LYSMD2 (UniProt Q8IV50),inactive: 0
2,LOC153364,inactive: 0
3,LLGL1 (UniProt Q15334),inactive: 0
4,KTELC1 (UniProt Q8NBL1),inactive: 0
5,KIF3B (UniProt O15066),inactive: 0
6,LETMD1 (UniProt Q6P1Q0),inactive: 0
7,LSG1 (UniProt Q9H089),inactive: 0
8,LYPLA2 (UniProt O95372),inactive: 0
9,MAML1 (UniProt Q92585),inactive: 0
10,LACTB (UniProt P83111),inactive: 0
11,LOC727762,inactive: 0
12,LENG1 (UniProt Q96BZ8),inactive: 0
13,LIPA (UniProt P38571),inactive: 0
14,KIAA1545 (UniProt Q9HCM7),inactive: 0
15,LRMP (UniProt Q12912),inactive: 0
16,MALT1 (UniProt Q9UDY8),inactive: 0
17,LONP2 (UniProt Q86WA8),inactive: 0
18,LSM14B (UniProt Q9BX40),inactive: 0
19,MAN2A1 (UniProt Q16706),inactive: 0

# Some of the entries so far, tab-delimited:
row	Target	dose-dependent thermal stabilisation call
5	KIF3B (UniProt O15066)	inactive: 0
19	MAN2A1 (UniProt Q16706)	inactive: 0

# Following part:

row,Target,dose-dependent thermal stabilisation call
1,LMAN2 (UniProt Q12907),inactive: 0
2,LRRC57 (UniProt Q8N9N7),inactive: 0
3,MAGED1 (UniProt Q9Y5V3),inactive: 0
4,KLC1 (UniProt Q07866),inactive: 0
5,LDLRAP1 (UniProt Q5SW96),inactive: 0
6,KLHL9 (UniProt Q9P2J3),inactive: 0
7,LATS1 (UniProt O95835),inactive: 0
8,KTN1 (UniProt Q86UP2),inactive: 0
9,LOC728658,inactive: 0
10,LPIN1 (UniProt Q14693),inactive: 0
11,KIAA1598 (UniProt A0MZ66),inactive: 0
12,LRRFIP2 (UniProt Q9Y608),inactive: 0
13,LLPH (UniProt Q9BRT6),inactive: 0
14,LARP2 (UniProt Q659C4),inactive: 0
15,LRRC45 (UniProt Q96CN5),inactive: 0
16,KIAA1219 (UniProt Q86X10),inactive: 0
17,LAMC1 (UniProt P11047),inactive: 0
18,LRP5 (UniProt O75197),inactive: 0
